Values of other authors in US4600721A, “Pharmaceutical preparation” (Ludwig Heumann & Co., GmbH, priority 1984, dated 1986).
At least one compound was matched to its structure with a doubt left.

Test system: lipoxygenase and cyclooxygenase
Settings: known inhibitors, statement in words; cited from earlier work

For `NC1=NN(c2cccc(C(F)(F)F)c2)CC1` [3-amino-1-(3-trifluoromethylphenyl)-pyrazoline], the “selective inhibitory action on lipoxygenase or inhibition of both lipoxygenase and cyclooxygenase” value is listed as “known inhibitors of this kind”.
